Measurements published in patent publication US20090149339A1.
Results are given in words; binding and its absence hold for the method and conditions named. Some entries that bind do so weakly or less than the wild type.

How the values were obtained:
[1] = biological target: GST-41.8 kD PDZ domain fusion protein (hypothetical 41.8 kD protein AA4-85; PDZ domain 1 of 1) [GST: P08515]; experiment: A assay
[2] = biological target: GST-AF6 PDZ domain fusion protein (af-6 protein AA985-1077; PDZ domain 1 of 1) [GST: P08515]; experiment: A assay
[3] = biological target: GST-PSD95 PDZ domain fusion protein (human post-synaptic density protein 95 AA387-724; PDZ domains 1-3 of 3) (human) [GST: P08515]; experiment: A assay
[4] = biological target: GST-NeDLG PDZ domain fusion protein (presynaptic protein sao102, neuroendocrine-dlg; PDZ domains 1-2 of 3) [GST: P08515]; experiment: A assay
[5] = biological target: GST-41.8 kD PDZ domain fusion protein (hypothetical 41.8 kD protein AA4-85; PDZ domain 1 of 1) [GST: P08515]; experiment: A/G assays (told in text)
[6] = biological target: GST-AF6 PDZ domain fusion protein (af-6 protein AA985-1077; PDZ domain 1 of 1) [GST: P08515]; experiment: A/G assays (told in text)
[7] = biological target: GST-PSD95 PDZ domain fusion protein (human post-synaptic density protein 95 AA387-724; PDZ domains 1-3 of 3) (human) [GST: P08515]; experiment: A/G assays (told in text)
[8] = biological target: GST-NeDLG PDZ domain fusion protein (presynaptic protein sao102, neuroendocrine-dlg; PDZ domains 1-2 of 3) [GST: P08515]; experiment: A/G assays (told in text)

Measured: binding

CAISGTSSDRGYGSPRYAEV (N-terminal biotin) [CLASP-4 C-terminal PL peptide AA3L-V, biotinylated]
binds: all assays above
